Reference: patent US12409184B2, “Iloprost compositions and formulations thereof” (BTG INTERNATIONAL INC., priority 2020, dated 2025)
Values joined by “and” are separate entries in the source; they are usually repeats but may differ in a detail not shown here. Equal entries are not always repeated. This continues a long series; more values of the same kind are listed elsewhere.

Test: Example 3 solution stability of fully diluted ready-to-use iloprost in IV bags (HPLC)
Format: physicochemical
Protocol: Iloprost 100 μg/mL injection product is administered to patients by IV bag infusion over a period of six hours. The fully diluted ready to use iloprost is prepared in pharmacy cleanroom using sterile preparation standards (USP Chapter <797>) by pharmacy trained and licensed staff. The fully diluted ready to use drug product may be prepared several hours ahead of treatment with storage at ambient conditions or several days ahead of treatment with storage at refrigerated (2-8° C.) conditions. The IV bags are prepared using empty sterile IV bags which are filled with 99 mL of 0.9% NaCl and 1.0 mL of iloprost 100 µg/mL injection product. The bags are then manually mixed gently to provide a uniform solution. […] IV Bag Sample Preparation: Two 50 mL syringes with 18-gauge needles were assembled. 1.0 mL syringe with 18-gauge needle was assembled. Using a 50 mL syringe, 50 mL of 0.9% NaCl was transferred into an empty IV bag (sterile, ICU Medical) using the injection port. Using a second 50 mL syringe, 49 mL of 0.9% NaCl was transferred into the same IV bag using the injection port resulting in 99 mL of solution. Using the 1 ml syringe, 1.0 mL of iloprost 100 μg/mL injection product was transferred into the IV bag using the injection port. The needle was removed and the port was securely closed. The IV bag was gently inverted several times to mix. During inversion, it was occasionally paused to squeeze the injection port area to ensure liquid rinsed into area several times. Sampling Procedure: For sampling, a 3 mL syringe was assembled with an 18-gauge needle. Using a 3 ml syringe, 2 mL of IV bag solution was withdrew through the injection port and 1 mL was transferred to a HPLC vial for neat injection and the other 1 ml was transferred to a back-up HPLC vial. HPLC vials were stored at refrigerated conditions 2-8° C. Sample Storage and Sampling: For each testing conditions (i-iv discussed above), 12 IV bag samples were prepared (6 IV bags for condition ia)-see below for sampling time). For condition i), all 12 IV bags were then placed into 25° C./60% RH stability chamber ensuring each bag is resting on its largest surface area side. After the first time point, the IV bags were removed from the chamber and each IV bag was mixed by inversion several times. Sampling from each IV bag was taken for HPLC analysis. After sampling, the IV bags were placed back into 25° C./60% RH stability chamber ensuring each bag is resting on its largest surface area side, until next sampling time. At each sampling time, the IV bags were removed from the chamber and each IV bag was mixed by inversion several times before samples were removed. For conditions ii) and iii), all 12 IV bags for each testing condition was placed into a 2-8° C. stability chamber ensuring each bag is resting on its largest surface area side. After 5 days have passed for condition ii) or after 8 days have passed for condition iii), the IV bags were removed from the chamber and allowed to equilibrate to room temperature. Each IV bag was mixed by inversion several times. Sampling from each IV bag was taken for HPLC analysis. Then the IV bags were placed in the 25° C./60% RH stability chamber and sampled at certain time points as discussed herein. […]

[1] = Table 8G (5° C. for 8 days to 25° C./60% RH), Batch 2, time point 5° C. for 5 days [sic]
[2] = Table 8G, Batch 2, 5° C. for 8 days, 25° C./60% RH for 8 hr
[3] = Table 8G, Batch 2, 5° C. for 8 days, 25° C./60% RH for 12 hr

CC#CCC(C)[C@H](O)/C=C/[C@@H]1[C@H]2C/C(=C/CCCC(=O)O)C[C@H]2C[C@H]1O (stereo partly drawn) [Iloprost, (5E)-5-[(3aS,4R,5R,6aS)-5-hydroxy-4-[(E,3S)-3-hydroxy-4-methyloct-1-en-6-ynyl]-3,3a,4,5,6,6a-hexahydro-1H-pentalen-2-ylidene]pentanoic acid]
Iloprost (Table 8E, Batch 2, 5° C. for 5 days, 25° C./60% for 12 hr): 1003 ng/mL and 1017 ng/mL and 985.9 ng/mL | Iloprost (Table 8E, Batch 2, IV bag, Initial (T = 0)): 1011 ng/mL and 986 ng/mL and 1022 ng/mL (2×) and 1001 ng/mL | Iloprost (Table 8F (5° C. for 8 days to 25° C./60% RH), Batch 1, time point 5° C. for 5 days [sic]): 994.4 ng/mL and 953.2 ng/mL and 978.4 ng/mL and 953.1 ng/mL and 984.2 ng/mL and 956.7 ng/mL | Iloprost (Table 8F, Batch 1, 5° C. for 8 days, 25° C./60% RH for 8 hr): 963.5 ng/mL and 955.9 ng/mL and 967.8 ng/mL and 938.7 ng/mL and 1033 ng/mL and 961.8 ng/mL | Iloprost (Table 8F, Batch 1, 5° C. for 8 days, 25° C./60% RH for 12 hr): 980.5 ng/mL and 964.1 ng/mL and 986.4 ng/mL and 967.5 ng/mL and 964.2 ng/mL and 952 ng/mL | Iloprost (Table 8F, Batch 1, IV bag, Initial (T = 0)): 957.6 ng/mL and 970.1 ng/mL and 966.1 ng/mL and 989.6 ng/mL and 959.6 ng/mL and 964.8 ng/mL | % Initial [1]: 100% | Iloprost [1]: 970.1 ng/mL and 957.9 ng/mL and 1020 ng/mL and 1007 ng/mL and 993.6 ng/mL and 1014 ng/mL | % Initial [2]: 100% and 98% and 101% and 99% and 102% | Iloprost [2]: 983.9 ng/mL and 964.5 ng/mL and 1004 ng/mL and 997.6 ng/mL and 1011 ng/mL and 1010 ng/mL | % Initial [3]: 99% and 98% and 101% and 100% and 102% | Iloprost [3]: 967.5 ng/mL and 964.4 ng/mL and 1007 ng/mL and 1011 ng/mL and 1013 ng/mL and 1009 ng/mL | Iloprost (Table 8G, Batch 2, IV bag, Initial (T = 0)): 992.7 ng/mL and 979.6 ng/mL and 983.6 ng/mL and 998.9 ng/mL and 1009 ng/mL and 1026 ng/mL
